Data as given in the supplement of paper PMC12823440, “Inhibitors supercharge kinase turnover through native proteolytic circuits” (Nature, 2025).
Structures can show the parent of a compound that is named as a salt. Some of the results follow. Hit calls seldom repeat between salt and free forms of one compound.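 In K562 cells expressing nanoluciferase-fused kinases, luminescence was recorded at 4 h intervals between 2 and 18 h, normalized as percent of control with DMSO at 100% and a positive control at 0%. A significant (2 sigma) signal drop marks a time point as decreased. The authors' rule for a hit is not shown and takes in more than the number of time points.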

Sequences of proteins named here, by UniProt entry; tags and fusion partners are left off.
UniProt P50750, whole entry: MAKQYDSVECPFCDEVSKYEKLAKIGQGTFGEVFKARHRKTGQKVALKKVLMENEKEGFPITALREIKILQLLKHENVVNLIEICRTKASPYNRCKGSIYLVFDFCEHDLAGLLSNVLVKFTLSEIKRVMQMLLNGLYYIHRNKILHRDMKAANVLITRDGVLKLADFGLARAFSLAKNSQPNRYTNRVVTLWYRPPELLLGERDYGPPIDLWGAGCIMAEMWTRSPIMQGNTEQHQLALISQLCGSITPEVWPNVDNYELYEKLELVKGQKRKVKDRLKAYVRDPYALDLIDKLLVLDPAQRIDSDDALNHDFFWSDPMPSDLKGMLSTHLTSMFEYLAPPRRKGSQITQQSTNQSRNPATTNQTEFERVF
UniProt O96017, whole entry: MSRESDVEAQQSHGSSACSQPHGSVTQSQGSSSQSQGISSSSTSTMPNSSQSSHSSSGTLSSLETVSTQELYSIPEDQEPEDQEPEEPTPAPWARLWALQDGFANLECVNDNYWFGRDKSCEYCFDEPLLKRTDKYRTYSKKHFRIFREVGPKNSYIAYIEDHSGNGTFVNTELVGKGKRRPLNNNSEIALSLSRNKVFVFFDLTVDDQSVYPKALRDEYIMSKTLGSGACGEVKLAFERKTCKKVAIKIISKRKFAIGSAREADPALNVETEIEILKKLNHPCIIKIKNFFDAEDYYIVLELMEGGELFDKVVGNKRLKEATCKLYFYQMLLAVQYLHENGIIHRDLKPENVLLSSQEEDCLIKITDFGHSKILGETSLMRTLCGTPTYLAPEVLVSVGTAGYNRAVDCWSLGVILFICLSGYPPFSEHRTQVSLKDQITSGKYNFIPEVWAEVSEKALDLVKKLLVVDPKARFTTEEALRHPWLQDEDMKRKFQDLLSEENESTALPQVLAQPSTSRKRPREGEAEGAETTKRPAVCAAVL

target: CDK9 (UniProt P50750); assay: kinase-Nluc reporter destabilization hit call (1 = scored as downregulated) (binary); higher = compound decreases kinase abundance; details: K562; 2-18 h

kinase-Nluc reporter destabilization hit call, inactive:
COc1cc(C(=O)NC2CCN(C)CC2)ccc1Nc1ncc2c(n1)N(C1CCCC1)CC(F)(F)C(=O)N2C (10 µM) 0
CCN1CCN(c2ccc(Nc3cc(N(C)C(=O)Nc4c(Cl)c(OC)cc(OC)c4Cl)ncn3)cc2)CC1 [Infigratinib] (10 µM) 0
CN1CCN(S(=O)(=O)c2ccc(-c3cnc(N)c(C(=O)Nc4cccnc4)n3)cc2)CC1 (10 µM) 0
Cc1cccc([C@@H](CO)NC(=O)[C@@H](C)N2Cc3ccc(-c4nc(NC5CCOCC5)ncc4Cl)cc3C2=O)c1 [ERK1/2 inhibitor 1] (10 µM) 0
COc1cc(CCc2cc(-c3nc4ccc(N5CCN(C)CC5)cc4[nH]3)n[nH]2)cc(OC)c1 (10 µM) 0
Cc1cc(CS(=O)(=O)c2ccccc2)cc(OCc2ccc(CN3CCC[C@@H]3CO)cc2)c1 [PF-543 (Citrate)] (10 µM) 0
Cc1[nH]c(/C=C2\C(=O)Nc3ccc(S(=O)(=O)Cc4c(Cl)cccc4Cl)cc32)c(C)c1C(=O)N1CCC[C@@H]1CN1CCCC1 (2.5 µM) 0
Cc1cc(F)c(C(=O)Nc2cccc(-c3nncn3C(C)C)n2)cc1-n1cnc(C2CC2)c1 [Selonsertib] (10 µM) 0
COCCOc1cc2nccc(Nc3n[nH]c(C)c3C)c2cc1S(=O)(=O)C(C)(C)C [RIP2 kinase inhibitor 2] (2.5 µM) 0

target: CHEK2 (UniProt O96017); assay: as above; details: K562; 2-18 h

kinase-Nluc reporter destabilization hit call, inactive:
N#Cc1ccc2[nH]c(O)c(-c3ccc(CN4CCOCC4)cn3)c2c1 (10 µM) 0
O=C1NCCc2[nH]c(-c3ccnc(-c4cnc5ccccc5c4)c3)cc21 (10 µM) 0
Oc1cc(O)cc(/C=C/c2ccc(O)c(O)c2)c1 [Piceatannol] (10 µM) 0
O=C(NOC[C@H](O)CO)c1ccc(F)c(F)c1Nc1ccc(I)cc1F (2.5 µM) 0
Cn1c(=O)n(-c2ccc(C(C)(C)C#N)cc2)c2c3cc(-c4cnc5ccccc5c4)ccc3ncc21 [Dactolisib (Tosylate)] (10 µM) 0
CCCCNc1ncc(-c2ccc(CN3CCOCC3)cn2)c(NC2CCC(O)CC2)n1 (centres undefined) (10 µM) 0
O=C(Nc1cc(C(F)(F)F)ccc1N1CCN(Cc2ccccn2)CC1)c1ccc(-c2ccncc2)o1 (10 µM) 0
CC[C@H](CO)Nc1nc(NCc2ccccc2)c2ncn(C(C)C)c2n1 [Seliciclib] (10 µM) 0
COC(=O)c1ccc2c(C(=Nc3ccc(N(C)C(=O)CN4CCN(C)CC4)cc3)c3ccccc3)c(O)[nH]c2c1 [Nintedanib] (2.5 µM) 0
COc1cc(F)cc([C@@H](CO)NC(=O)[C@@H](C)N2Cc3ccc(-c4nc(NC5CCOCC5)ncc4Cl)cc3C2=O)c1 [ERK1/2 inhibitor 2] (10 µM) 0
CC(C)c1ccc2oc3nc(N)c(C(=O)O)cc3c(=O)c2c1 [Amlexanox] (10 µM) 0
CN(C)C[C@@H]1CCn2cc(c3ccccc32)C2=C(C(=O)NC2=O)c2cn(c3ccccc23)CCO1 [Ruboxistaurin (hydrochloride)] (10 µM) 0
CCc1nc(-c2cccc(C)c2)c(-c2ccnc(NC(=O)c3ccccc3)c2)s1 (10 µM) 0
CCOc1cc2ncc(-c3cc(N)nc(F)c3)n2cc1S(=O)(=O)C(C)(C)C (10 µM) 0
CC(C)(/C=C(\C#N)C(=O)N1CCC[C@@H](n2nc(-c3ccc(Oc4ccccc4)cc3F)c3c(N)ncnc32)C1)N1CCN(C2COC2)CC1 (2.5 µM) 0
CCCn1cnc2c(NCc3ccccc3)nc(NC(CC)CO)nc21 (centres undefined) [Ca2+ channel agonist 1] (2.5 µM) 0
Brc1c(Br)c(Br)c2n[nH]nc2c1Br (10 µM) 0
Nc1nc(OCC2CCCCC2)c2[nH]cnc2n1 (10 µM) 0
COc1ccc(Oc2cc(NCCC(F)(F)F)c3ncc(-c4ccc(C(=O)NC5CC5)c(C)c4)n3n2)c(F)c1F (2.5 µM) 0
COc1cc(C(=O)NC2CCN(C)CC2)c(F)cc1Nc1ncc2c(n1)N(C1CCCC1)CC(F)(F)C(=O)N2C [TAK-960 (dihydrochloride)] (2.5 µM) 0

Reprinted at random: two records from the list, in no set order.
kinase-Nluc reporter destabilization hit call, inactive:
N#Cc1ccc2[nH]c(O)c(-c3ccc(CN4CCOCC4)cn3)c2c1 (10 µM) 0
Nc1nc(OCC2CCCCC2)c2[nH]cnc2n1 (10 µM) 0
